Assay results as given in patent US12399090B2, “Transparentizing pretreatment method of biological sample having size of at most 1 mm, and transparentizing method of biological sample including same” (KOREA RESEARCH INSTITUTE OF CHEMICAL TECHNOLOGY, priority 2020, dated 2025).
At least one compound was matched to its structure with a doubt left.

Tested on: human-derived cancer organoids
Assay: Hoechst/PI ratio of human-derived cancer organoids analyzed with Thunder imager before and after drug treatment
Format: cell-based
Settings: organoids from glioblastoma patient tissue; after vs before treating with temozolomide; PI as dead cell marker; FIG. 3 and 4

Cn1nnc2c(C(N)=O)ncn2c1=O [temozolomide]
number of dead cells (Hoechst/PI ratio): the number of the dead cells increased
